Measured values reported in article PMC7335780, “Role of folding kinetics of secondary structures in telomeric G-overhangs in the regulation of telomere maintenance in Saccharomyces cerevisiae”.

Experiments:
[1] = molecular target: T1, Cdc13-DBD (Saccharomyces cerevisiae (strain SCY325)) (UniProt P32797); assay: EMSA; conditions: probe folded >24 h in K+ buffer, decreased vs 20 min folding; 5' phosphate; EMSA: 1x K+ buffer (20 mM potassium phosphate pH 7.0, 135 mM KCl, 9% glycerol), 10 min at 22 C/RT, 6% PAGE in 0.5x TBE; recombinant protein; residues 497-694; label: 5'-32P; single-stranded DNA
T1 sequence (looked up): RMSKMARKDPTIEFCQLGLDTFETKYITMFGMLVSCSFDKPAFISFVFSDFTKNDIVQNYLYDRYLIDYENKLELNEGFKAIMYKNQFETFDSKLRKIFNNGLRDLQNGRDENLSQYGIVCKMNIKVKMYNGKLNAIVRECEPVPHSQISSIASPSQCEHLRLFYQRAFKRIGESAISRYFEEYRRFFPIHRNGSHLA

[2] = molecular target: T1, Cdc13-DBD (Saccharomyces cerevisiae (strain SCY325)); assay: NMR; conditions: equimolar in K+TD buffer, no imino line broadening, no stable complex, recombinant protein, residues 497-694, folded or branched DNA
[3] = molecular target: T1, Cdc13-DBD (Saccharomyces cerevisiae (strain SCY325)); assay: competition with a labelled probe; conditions: EMSA: 1x K+ buffer (20 mM potassium phosphate pH 7.0, 135 mM KCl, 9% glycerol), 10 min at 22 C/RT, 6% PAGE in 0.5x TBE, recombinant protein, residues 497-694
[4] = folded 72 h in K+ buffer, 50 or 75 nM, vs 32P-ONG11, folded or branched DNA

GTGTGGGTGTG [ONG11 5'-32P probe]
binding result [1]: binds more weakly

GTGTGGGTGTG [ONG11 folded G-hairpin]
binding result ([2]; folded species): no binding | binding result ([3]; 24 h in K+ buffer, loses competing ability vs 20 min, folded or branched DNA): binds more weakly | binding result [3, 4]: binds more weakly

GTGTGGGTGTG [ONG11 unfolded (H2O or freshly boiled)]
binding result ([3]; 20 min in K+ buffer, mostly still unfolded, label: none as competitor, single-stranded DNA): binds

GTGTGGGTGTGGTGTGGGTGTGGTGTGGGTGTG [ONG1 folded G4]
binding result [2]: no binding | binding result ([3]; 20 min in K+ buffer, poor competitor, unchanged at 24 h, folded or branched DNA): binds more weakly | binding result ([3]; folded 24 h in K+ buffer, 100-1000 nM, similar to ONG9, folded or branched DNA): binds more weakly | binding result [3, 4]: binds more weakly

TGGGTGTGGTGTGGGTGTGGT [ONG9 folded G4]
binding result [2]: no binding | binding result ([3]; folded 24 h in K+ buffer, 100-1000 nM, similar to ONG1, folded or branched DNA): binds more weakly

TGTGGGTGTG [Cdc13-NC]
binding result ([3]; unlabelled negative-control competitor vs 32P-ONG11, single-stranded DNA): binds more weakly

For part of these data: No signal at the amounts used counts as a negative. Where a protein sequence is shown, tags need not be part of it. For part of these data: For at least one entry, the source does not settle the construct or the ends of the probe. For part of these data: A weaker result is weaker than the reference pair of the same experiment. For part of these data: At least one verdict rests on a figure or table, not on a statement of the authors.
